Measurements: article PMC7404392
No constants are given. Whether binding was seen depends on the method and setting. Binding seen in cells or lysates may run through a third protein. Some results given as binding are weak or reduced against the parent protein; the word gives no strength. Tags and fused reporters may be left off the sequences shown.

Assays:
[1] = target: T1, Kv4.3-Flag (pCMV-KCND3-Long-FLAG) (human) (UniProt Q9UK17); assay: proximity ligation; Duolink on methanol-fixed HEK293 cells co-expressing GFP-Nav1.5 or GFP with Kv4.3-Flag; rabbit anti-GFP and mouse anti-Flag primary antibodies, PLA probes, confocal microscopy
T1 sequence: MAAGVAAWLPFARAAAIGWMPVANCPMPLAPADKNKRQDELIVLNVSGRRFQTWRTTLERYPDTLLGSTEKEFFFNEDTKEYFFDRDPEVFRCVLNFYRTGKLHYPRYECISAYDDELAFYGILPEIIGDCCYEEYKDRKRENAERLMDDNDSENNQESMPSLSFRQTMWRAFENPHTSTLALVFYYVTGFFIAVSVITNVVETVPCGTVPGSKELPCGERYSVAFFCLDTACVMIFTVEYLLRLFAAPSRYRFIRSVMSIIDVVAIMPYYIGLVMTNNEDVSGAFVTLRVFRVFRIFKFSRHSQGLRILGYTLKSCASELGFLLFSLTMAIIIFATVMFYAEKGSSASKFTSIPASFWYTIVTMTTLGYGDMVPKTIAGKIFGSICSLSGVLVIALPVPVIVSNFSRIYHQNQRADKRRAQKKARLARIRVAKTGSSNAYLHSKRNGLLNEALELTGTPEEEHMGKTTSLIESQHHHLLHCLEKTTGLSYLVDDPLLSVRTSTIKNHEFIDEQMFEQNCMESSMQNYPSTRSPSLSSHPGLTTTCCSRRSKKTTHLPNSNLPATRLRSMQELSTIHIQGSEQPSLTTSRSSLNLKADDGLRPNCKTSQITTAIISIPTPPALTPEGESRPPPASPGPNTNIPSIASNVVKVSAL

[2] = target: T1, Kv4.3-Flag (pCMV-KCND3-Long-FLAG) (human); assay: co-IP; HEK293 cells co-transfected with Nav1.5 constructs and Kv4.3-Flag; lysis in 50 mM Tris pH 7.5, 150 mM NaCl, 2 mM EDTA, 1% Triton; anti-Flag antibody on Dynabeads Protein G, overnight at 4 °C; blots with anti-Nav1.5 and anti-Flag

GFP-Nav1.5 (WT; pcDNA3.1-GFP-SCN5A) (from UniProt Q14524 1-2016)
binding [1]: binds | binding [2]: binds
